The target in assay [1] is T1, Pol31 (Drosophila melanogaster (endogenous in embryos)) (UniProt Q9W088).
T1 sequence: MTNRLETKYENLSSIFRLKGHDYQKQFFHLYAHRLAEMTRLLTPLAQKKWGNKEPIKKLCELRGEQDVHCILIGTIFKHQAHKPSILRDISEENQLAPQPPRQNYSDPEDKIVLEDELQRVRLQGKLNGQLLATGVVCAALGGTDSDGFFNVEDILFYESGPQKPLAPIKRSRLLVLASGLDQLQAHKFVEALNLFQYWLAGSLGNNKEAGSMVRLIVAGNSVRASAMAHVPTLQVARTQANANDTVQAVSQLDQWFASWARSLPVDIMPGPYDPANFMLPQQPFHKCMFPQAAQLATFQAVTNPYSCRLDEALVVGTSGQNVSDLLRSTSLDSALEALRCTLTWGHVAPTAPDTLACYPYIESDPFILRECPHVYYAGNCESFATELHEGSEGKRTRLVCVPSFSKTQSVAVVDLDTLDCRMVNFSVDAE
Description: co-IP; extracts of early embryos (wild type; also pol32 mutant) in PBS with 0.3% Triton X-100 and protease inhibitors; IP with anti-PolD serum, purified anti-Pol32 antibody or anti-Pol31 serum, 3 h at 4°C; Protein A/G agarose; Western blot; pre-immune serum as control.

Assay [2] has as its target T2, PolD (Drosophila melanogaster (endogenous in embryos)) (UniProt P54358).
T2 sequence: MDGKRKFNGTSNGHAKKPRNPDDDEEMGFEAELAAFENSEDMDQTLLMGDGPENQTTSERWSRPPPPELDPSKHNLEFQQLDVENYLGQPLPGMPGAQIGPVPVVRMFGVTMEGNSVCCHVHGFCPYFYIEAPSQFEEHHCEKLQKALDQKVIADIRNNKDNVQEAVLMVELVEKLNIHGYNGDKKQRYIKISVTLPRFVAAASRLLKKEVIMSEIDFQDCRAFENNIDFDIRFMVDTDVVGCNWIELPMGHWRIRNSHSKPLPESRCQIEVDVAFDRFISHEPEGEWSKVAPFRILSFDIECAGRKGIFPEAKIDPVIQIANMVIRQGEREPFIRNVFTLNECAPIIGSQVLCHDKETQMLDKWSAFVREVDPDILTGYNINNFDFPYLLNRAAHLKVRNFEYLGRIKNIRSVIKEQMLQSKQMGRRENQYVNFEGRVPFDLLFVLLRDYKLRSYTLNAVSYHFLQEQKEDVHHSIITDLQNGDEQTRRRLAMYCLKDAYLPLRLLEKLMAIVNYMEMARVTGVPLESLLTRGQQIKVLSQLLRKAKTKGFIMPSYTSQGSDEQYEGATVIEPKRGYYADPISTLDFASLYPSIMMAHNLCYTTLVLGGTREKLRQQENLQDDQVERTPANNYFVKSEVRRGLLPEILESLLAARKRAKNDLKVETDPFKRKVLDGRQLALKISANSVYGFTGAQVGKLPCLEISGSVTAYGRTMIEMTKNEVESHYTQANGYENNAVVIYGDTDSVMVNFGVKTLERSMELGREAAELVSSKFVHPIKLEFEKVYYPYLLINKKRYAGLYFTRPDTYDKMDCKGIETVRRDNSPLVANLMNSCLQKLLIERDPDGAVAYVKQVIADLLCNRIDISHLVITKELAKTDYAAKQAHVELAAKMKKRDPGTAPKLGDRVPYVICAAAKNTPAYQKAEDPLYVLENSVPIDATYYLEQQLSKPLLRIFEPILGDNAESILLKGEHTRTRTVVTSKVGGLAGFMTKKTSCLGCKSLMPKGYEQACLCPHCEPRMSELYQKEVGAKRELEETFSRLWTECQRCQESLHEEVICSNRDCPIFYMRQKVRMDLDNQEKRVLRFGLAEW
The description is as above.

No constants are given. Whether binding was seen depends on the method and setting. Binding seen in cells or lysates may run through a third protein. Some results given as binding are weak or reduced against the parent protein; the word gives no strength.

Results on 2 molecules are retold here after article PMC6542543.

B1: PolD (protein, UniProt P54358 1-1092)
chain: T2 sequence
With B1, in assay [1], the binding result is given as “binds”.

B2: Pol32 (protein, UniProt Q9Y118 1-431)
chain: MSLKKALDDCMIDFDRCVLVTDLLEEYKLSYKEVNDVLEAYIKEQEPATKFEKRFLVHGKRKTQGSDSGEDLYSVVLESRMQDWLAKVQDAESQLYSVKIAGGTKAPAAIFKPMQHLEVKLAKVEQRPGAGKIVPSANGTTPHNGVKSEPTKSEPSKSAVKLEPSKSSLKSEPAKSKAEKPVASKSSPEDKKTSPKEQASKAKPAAAKKGSINSFFTAAASKPKDVKATPSKSTSGTVDNFFKKQPAGAKKSPPESEDKSKKDASNSNKKEASKKKSPSPTKKPTTANTSMQLFDEESAESSDEEEKLDMLRRKVIESDNDSDQEKASSSKRRRISDSEDEEQPPKKSADEETIALDEKMDTEPANETYLDEDGFVITQRKPTKAQPANKKVSPKAAAPVNKKKSPPSAAKAGKDAPKTKQAGIMNFFSKK
Turning to B2, the binding entry in assay [2] and in assay [1] was “binds” in each case.
